Results deposited as PubChem BioAssay AID1508597 (Cure First, 2020)
Aim: 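Genes whose silencing sensitises or protects ovarian cancer cells against rucaparib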 (primary screen). Cell system: human ovarian carcinoma lines grown from tumours: OCI-P5x (papillary serous) and OCI-C5x (clear cell). Reagents: siRNA pool against human genes, 1.25 pmol siRNA per well. Duration: 72 h or 96 h, depending on the cell culture. Treatment: rucaparib 20 µM (about IC30) or vehicle, present until read-out. Rucaparib or vehicle: Rucaparib. Cell line: OCI-P5x (serous). Measured: 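ATP luminescence measured at 72 or 96 h according to the culture, then normalised and expressed as percent viability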. Reading the numbers: viability, normalised: higher = more viable cells remaining. Active means: 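a well counts as a hit if its normalised viability is under 80 percent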. Calls: active = viability under 80%; inactive = viability 80% or more.
Shown is an unselected part of the about 2,100 reagents, in one setting of the screen. 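Calls flag viability under 80% in either arm, not effects specific to rucaparib; the reference for percent is not stated.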 Not stated in the record: the 100% reference.

APTX (aprataxin), technical replicate 1 showed viability, normalised (%) = 70.9; active. With APTX (aprataxin), technical replicate 2 the deposit lists viability, normalised (%) = 77; active. For APTX (aprataxin), technical replicate 3 the deposit lists viability, normalised (%) = 58.6; active. NEK11 (NIMA related kinase 11), technical replicate 1 gave viability, normalised (%) = 91.5; inactive. NEK11 (NIMA related kinase 11), technical replicate 2 gave viability, normalised (%) = 81.8; inactive. NEK11 (NIMA related kinase 11), technical replicate 3 showed viability, normalised (%) = 75.3; active.

For CBX6 (chromobox 6), technical replicate 1, the values are viability, normalised (%) = 53.9; active. CBX6 (chromobox 6), technical replicate 2 showed viability, normalised (%) = 62.7; active. CBX6 (chromobox 6), technical replicate 3 showed viability, normalised (%) = 78.2; active. HAT1 (histone acetyltransferase 1), technical replicate 1 showed viability, normalised (%) = 56.7; active. With HAT1 (histone acetyltransferase 1), technical replicate 2 the deposit lists viability, normalised (%) = 59.7; active. HAT1 (histone acetyltransferase 1), technical replicate 3 showed viability, normalised (%) = 77.6; active.

PIP4K2A (phosphatidylinositol-5-phosphate 4-kinase type 2 alpha), technical replicate 1 scored viability, normalised (%) = 82.3; inactive. For PIP4K2A (phosphatidylinositol-5-phosphate 4-kinase type 2 alpha), technical replicate 2, the values are viability, normalised (%) = 92.5; inactive. With PIP4K2A (phosphatidylinositol-5-phosphate 4-kinase type 2 alpha), technical replicate 3, the entry reads viability, normalised (%) = 81.6; inactive. NEK4 (NIMA related kinase 4), technical replicate 1 scored viability, normalised (%) = 80.6; inactive. With NEK4 (NIMA related kinase 4), technical replicate 2 the deposit lists viability, normalised (%) = 46.6; active. NEK4 (NIMA related kinase 4), technical replicate 3 scored viability, normalised (%) = 64.2; active.

With TET2 (tet methylcytosine dioxygenase 2), technical replicate 1 the deposit lists viability, normalised (%) = 44.3; active. TET2 (tet methylcytosine dioxygenase 2), technical replicate 2 scored viability, normalised (%) = 63.9; active. TET2 (tet methylcytosine dioxygenase 2), technical replicate 3 gave viability, normalised (%) = 58.1; active. TJP1 (tight junction protein 1), technical replicate 1 gave viability, normalised (%) = 74.1; active. For TJP1 (tight junction protein 1), technical replicate 2 the deposit lists viability, normalised (%) = 71.7; active. With TJP1 (tight junction protein 1), technical replicate 3, the entry reads viability, normalised (%) = 56.8; active.

TBP (TATA-box binding protein), technical replicate 1 gave viability, normalised (%) = 76.1; active. TBP (TATA-box binding protein), technical replicate 2 showed viability, normalised (%) = 81.3; inactive. TBP (TATA-box binding protein), technical replicate 3 scored viability, normalised (%) = 93.6; inactive. PROX1 (prospero homeobox 1), technical replicate 1 showed viability, normalised (%) = 34.4; active. PROX1 (prospero homeobox 1), technical replicate 2 scored viability, normalised (%) = 60.9; active. PROX1 (prospero homeobox 1), technical replicate 3 scored viability, normalised (%) = 62.4; active.

PSENEN (presenilin enhancer, gamma-secretase subunit), technical replicate 1 gave viability, normalised (%) = 79.3; active. With PSENEN (presenilin enhancer, gamma-secretase subunit), technical replicate 2, the entry reads viability, normalised (%) = 80.6; inactive. PSENEN (presenilin enhancer, gamma-secretase subunit), technical replicate 3 showed viability, normalised (%) = 82.1; inactive. With TDRD1 (tudor domain containing 1), technical replicate 1, the entry reads viability, normalised (%) = 47.5; active. For TDRD1 (tudor domain containing 1), technical replicate 2, the entry reads viability, normalised (%) = 77.9; active. TDRD1 (tudor domain containing 1), technical replicate 3 gave viability, normalised (%) = 62.4; active.

TAF3 (TATA-box binding protein associated factor 3), technical replicate 1 scored viability, normalised (%) = 52.2; active. With TAF3 (TATA-box binding protein associated factor 3), technical replicate 2, the entry reads viability, normalised (%) = 37.4; active. For TAF3 (TATA-box binding protein associated factor 3), technical replicate 3, the values are viability, normalised (%) = 56.7; active. HP1BP3 (heterochromatin protein 1 binding protein 3), technical replicate 1 scored viability, normalised (%) = 58.8; active. HP1BP3 (heterochromatin protein 1 binding protein 3), technical replicate 2 gave viability, normalised (%) = 62.1; active. HP1BP3 (heterochromatin protein 1 binding protein 3), technical replicate 3 scored viability, normalised (%) = 46.7; active.

6 of these entries, reformatted:
{"gene":"NEK11 (NIMA related kinase 11)","technical replicate":"2","viability, normalised (%)":81.8,"outcome":"inactive"}
{"gene":"NEK11 (NIMA related kinase 11)","technical replicate":"3","viability, normalised (%)":75.3,"outcome":"active"}
{"gene":"CBX6 (chromobox 6)","technical replicate":"1","viability, normalised (%)":53.9,"outcome":"active"}
{"gene":"CBX6 (chromobox 6)","technical replicate":"2","viability, normalised (%)":62.7,"outcome":"active"}
{"gene":"CBX6 (chromobox 6)","technical replicate":"3","viability, normalised (%)":78.2,"outcome":"active"}
{"gene":"HAT1 (histone acetyltransferase 1)","technical replicate":"1","viability, normalised (%)":56.7,"outcome":"active"}
